# For at least one entry, the source does not settle the construct or the ends of the probe. A negative result means that nothing was seen under these conditions.
# Tested on: SlJUL (Solanum lycopersicum)
# Test: activity in cells
# Settings: indirect: no repression of LUC reporter with G4-disrupted 5'UTR; protein in cells; variant of SlSMXL5 5'UTR
sequence,measurement,value
UUACGGUAUUAACAACGAAAAAAAAUGUAAAAAAAAUAAAAUUGUAUCUAAGUUCCAUG [mSlSMXL5 5'UTR],functional effect,not active

# Reference: patent US20240052002
